From PMC7862700
The entries are a selection whose mix differs from that of the whole data set. At the low end of the ranking the order means little.

Molecular target: SPI1 (UniProt P17947)
Experiment: DAPPL (digital affinity profiling via proximity ligation, sequencing)
Settings: 10 mM Tris-HCl pH 7.5, 50 mM NaCl, 1 mM DTT, 4% glycerol, room temperature, 30 min; GST-TFs on glutathione beads, 16-mer random dsDNA library, 0.1% …; high values mean tight binding; double strand, one strand shown; scale: fold enrichment (6-mer frequency, TF over GST control)

Sequence	binding signal
TGAGCC	0.834
CCGTGC	0.592
GACGTA	0.735
TCAGAG	0.687
GGACCA	0.77
AAGGAG	0.344
GAGGCG	0.355
CGGTGG	0.647
AGTGTG	0.888
TGGAGC	0.583
GTAAGG	0.713
CCCGGG	0.789
TGAGTC	0.192
AGGCCT	0.924
GAAGGC	0.868
GCTCGG	0.717
GCGAGA	0.501
CAGTTG	0.477
ACAACG	0.93
GGGGAG	0.384

As a working copy, part of the list above:
Sequence	binding signal
GGACCA	0.77
AAGGAG	0.344
GAGGCG	0.355
CGGTGG	0.647
AGTGTG	0.888
TGGAGC	0.583
GTAAGG	0.713
CCCGGG	0.789
TGAGTC	0.192
AGGCCT	0.924

Going on with the list.

Sequence	binding signal
GTCGAA	0.623
GAGATG	0.625
GGCGGC	0.542
TACCAG	0.855
AGAGCC	0.64
GCGGAG	0.268
GGGCGG	0.404
GGTCAT	0.801
CGGGCG	0.415
GGAGTG	0.413
GGCTGA	0.696
CGAGAC	0.562
GACACC	0.871
GCCAGC	0.771
GCGGTT	0.812
GACGCC	0.912
GGGGAC	0.412
GTACGT	0.88
AGTCTA	0.834
CAAGAG	0.727
